Laboratory results from patent US20040121994A1, “Novel amides that activate soluble guanylate cyclase” (priority 2002, published 2004).
At least one structure is not confirmed: it was looked up by name or label, or the drawing left a doubt.

Target: T1, soluble guanylate cyclase (sGC), α1 and β1 subunits of guanylate cyclase expressed in Sf9 cells (Homo sapiens, UniProt Q02108+Q02153)
T1 construct: made in house; host or cells: Sf9 insect cells (baculovirus co-infection)
T1 sequence (Q02108 1-690): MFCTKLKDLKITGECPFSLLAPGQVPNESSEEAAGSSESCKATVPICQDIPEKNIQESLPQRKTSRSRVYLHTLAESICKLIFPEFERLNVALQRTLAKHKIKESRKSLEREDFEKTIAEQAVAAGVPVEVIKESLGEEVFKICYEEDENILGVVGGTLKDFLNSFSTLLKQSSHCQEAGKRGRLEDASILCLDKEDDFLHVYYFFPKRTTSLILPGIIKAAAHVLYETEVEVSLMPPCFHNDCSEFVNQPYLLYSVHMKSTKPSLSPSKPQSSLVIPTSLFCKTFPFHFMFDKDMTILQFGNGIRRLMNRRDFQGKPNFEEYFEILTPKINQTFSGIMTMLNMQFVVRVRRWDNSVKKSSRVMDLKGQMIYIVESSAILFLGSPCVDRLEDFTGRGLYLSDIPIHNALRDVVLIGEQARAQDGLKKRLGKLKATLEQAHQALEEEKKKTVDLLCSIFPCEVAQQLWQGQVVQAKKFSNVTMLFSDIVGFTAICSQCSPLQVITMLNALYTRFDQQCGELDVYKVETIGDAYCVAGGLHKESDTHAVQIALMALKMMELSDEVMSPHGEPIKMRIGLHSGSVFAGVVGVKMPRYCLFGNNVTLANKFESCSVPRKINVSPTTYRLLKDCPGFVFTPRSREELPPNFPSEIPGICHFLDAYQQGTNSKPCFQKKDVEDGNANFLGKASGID
T1 sequence (Q02153 1-619): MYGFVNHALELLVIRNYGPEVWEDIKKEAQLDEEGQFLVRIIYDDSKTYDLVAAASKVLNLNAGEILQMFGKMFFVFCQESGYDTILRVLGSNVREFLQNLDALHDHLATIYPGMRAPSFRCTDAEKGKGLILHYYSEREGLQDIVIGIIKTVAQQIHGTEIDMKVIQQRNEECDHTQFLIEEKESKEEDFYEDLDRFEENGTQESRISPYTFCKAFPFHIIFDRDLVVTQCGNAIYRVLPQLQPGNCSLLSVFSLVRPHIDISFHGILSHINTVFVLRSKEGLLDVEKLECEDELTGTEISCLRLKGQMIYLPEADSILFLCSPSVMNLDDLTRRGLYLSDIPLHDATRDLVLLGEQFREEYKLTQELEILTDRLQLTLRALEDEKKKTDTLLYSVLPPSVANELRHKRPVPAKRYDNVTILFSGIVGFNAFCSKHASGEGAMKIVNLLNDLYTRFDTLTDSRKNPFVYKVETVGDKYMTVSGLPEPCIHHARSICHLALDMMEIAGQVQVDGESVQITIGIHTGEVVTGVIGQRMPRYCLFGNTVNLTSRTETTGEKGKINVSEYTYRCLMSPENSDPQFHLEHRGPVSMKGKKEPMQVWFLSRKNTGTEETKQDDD
Assay: Guanylate cyclase assay (formation of cyclic GMP from GTP)
Type: biochemical
Details: (activity of compound at 100 μM with 1 μM SNP)−(activity of compound at 100 μM)/(activity of SNP at 1 μM)−(basal activity of sGC)
Method: Sf9 cells were cultured in Sf-90011 medium supplemented with 10% (v/v) fetal calf serum at 28° C. to give a count of 6×10^5 cells/ml. The cells were then infected with a mixture of the virus stocks for the α1 and β1 subunits of guanylate cyclase at a multiplicity of infection of 0.1 pfu/cell. The cells were harvested 72 hours after infection and were pelleted by centrifugation. The resulting cell pellets were homogenized with Polytron homogenizer in 3 volumes of 20 mM Tris-HCl (pH 7.6) containing 1 mM EDTA, 5 mM dithiothreitol, 90 mM NaCl, 10% glycerol, and protease inhibitors mix (Roche Molecular Biochemicals). The homogenate was centrifuged at 50,000×g for 60 minutes and the supernatant was aliquotted and stored at −80° C. […]
Guanylate cyclase activity was measured by the formation of cyclic GMP from GTP in a total volume of 100 μl. […] The solution was centrifuged at 3000 rpm for 15 minutes at room temperature and cyclic GMP in 20 μl of the resulting supernatant was measured according to the protocol of Amersham cyclic GMP enzymeimmunoassay system (purchased from Sigma, catalogue number RPN 226).
Compounds of the present invention were tested at 100 μM with and without 1 μM sodium nitro prusside (SNP). […] Mean basal efficacy, in Table 1, was expressed as a percentage of 100 μM YC-1 (without SNP). […]

| SMILES | Mean activation at 100 μM |
| --- | --- |
| O=C(/C=C/c1cccnc1Sc1ccc(Cl)cc1Cl)NC1CCC(O)CC1 (centres unmarked) [Example 17, (2E)-3-{2-[(2,4-dichlorophenyl)thio]-3-pyridinyl}-N-(4-hydroxycyclohexyl)acrylamide] | 5.4 |
| O=C(/C=C/c1cccnc1Sc1ccc(Br)cc1)NC1CCC(O)CC1 (centres unmarked) [Example 18, (2E)-3-{2-[(4-bromophenyl)thio]-3-pyridinyl}-N-(4-hydroxycyclohexyl)acrylamide] | 4.1 |
